The assay has as its target His-tagged N. meningitidis BamA (N. meningitidis) (UniProt Q9K1H0). Nature of the assay: pull-down; His-tagged NmBamA purified on Ni2+-NTA agarose beads under native conditions from Elugent extracts of E. coli DH5α cell envelopes; elution fractions immunoblotted with antisera against BamD and BamB; control: cells not induced with IPTG.

Sequences of proteins named here, by UniProt entry; tags and fusion partners are left off. Residues count along the entry.
UniProt Q9K1H0, residues 22-797: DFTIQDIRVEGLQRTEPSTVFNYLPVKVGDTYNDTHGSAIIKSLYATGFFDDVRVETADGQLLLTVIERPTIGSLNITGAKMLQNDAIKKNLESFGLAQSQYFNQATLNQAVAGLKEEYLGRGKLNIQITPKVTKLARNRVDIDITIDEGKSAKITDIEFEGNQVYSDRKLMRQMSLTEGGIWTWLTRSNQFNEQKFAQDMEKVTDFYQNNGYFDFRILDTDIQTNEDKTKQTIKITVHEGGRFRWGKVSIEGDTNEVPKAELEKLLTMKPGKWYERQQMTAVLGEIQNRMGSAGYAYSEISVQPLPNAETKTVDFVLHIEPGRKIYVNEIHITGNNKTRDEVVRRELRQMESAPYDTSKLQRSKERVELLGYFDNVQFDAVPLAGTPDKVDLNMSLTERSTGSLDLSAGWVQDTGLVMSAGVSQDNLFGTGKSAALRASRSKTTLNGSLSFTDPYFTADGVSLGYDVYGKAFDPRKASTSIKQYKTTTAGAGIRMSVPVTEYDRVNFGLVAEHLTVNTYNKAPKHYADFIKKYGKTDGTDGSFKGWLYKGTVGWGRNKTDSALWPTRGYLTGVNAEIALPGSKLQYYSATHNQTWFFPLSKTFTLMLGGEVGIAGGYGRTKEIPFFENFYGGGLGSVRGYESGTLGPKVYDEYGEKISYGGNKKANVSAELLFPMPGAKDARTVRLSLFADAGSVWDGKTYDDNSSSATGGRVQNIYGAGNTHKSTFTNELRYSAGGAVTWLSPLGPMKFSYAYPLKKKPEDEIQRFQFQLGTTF
UniProt P0AC02, residues 20-245: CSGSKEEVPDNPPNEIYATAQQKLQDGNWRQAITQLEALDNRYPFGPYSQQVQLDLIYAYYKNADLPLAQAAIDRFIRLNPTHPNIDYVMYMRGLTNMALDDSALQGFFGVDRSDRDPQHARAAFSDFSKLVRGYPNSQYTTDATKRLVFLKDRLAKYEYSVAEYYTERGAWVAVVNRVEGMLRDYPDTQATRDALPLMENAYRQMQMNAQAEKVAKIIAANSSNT
UniProt P77774, residues 20-392: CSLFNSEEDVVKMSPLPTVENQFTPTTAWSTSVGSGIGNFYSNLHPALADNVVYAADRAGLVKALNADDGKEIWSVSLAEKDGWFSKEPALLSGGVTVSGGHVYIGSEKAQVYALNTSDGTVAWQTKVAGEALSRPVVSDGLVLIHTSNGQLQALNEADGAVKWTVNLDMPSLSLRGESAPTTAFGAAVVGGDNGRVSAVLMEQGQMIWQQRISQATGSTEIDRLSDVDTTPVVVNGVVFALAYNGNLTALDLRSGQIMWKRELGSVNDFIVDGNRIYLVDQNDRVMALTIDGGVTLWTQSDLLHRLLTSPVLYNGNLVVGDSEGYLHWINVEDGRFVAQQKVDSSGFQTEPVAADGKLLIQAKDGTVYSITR

The results in this text go back to publication PMC3869937.

Results are given in words; binding and its absence hold for the method and conditions named. Binding seen in cells or lysates may run through a third protein. Some entries that bind do so weakly or less than the wild type.

Take “E. coli BamD (from UniProt P0AC02 20-245)”: the binding result was “binds”.
Under “E. coli BamB (from UniProt P77774 20-392)” stands “no binding”.
